Results are given in words; binding and its absence hold for the method and conditions named. Some entries that bind do so weakly or less than the wild type.
Assays:
[1] = target: T1, full-length human C1s, recombinant (expressed in HEK293 cells) (human) (UniProt P09871); assay: western blot of non-reduced SDS-PAGE gels
T1 sequence: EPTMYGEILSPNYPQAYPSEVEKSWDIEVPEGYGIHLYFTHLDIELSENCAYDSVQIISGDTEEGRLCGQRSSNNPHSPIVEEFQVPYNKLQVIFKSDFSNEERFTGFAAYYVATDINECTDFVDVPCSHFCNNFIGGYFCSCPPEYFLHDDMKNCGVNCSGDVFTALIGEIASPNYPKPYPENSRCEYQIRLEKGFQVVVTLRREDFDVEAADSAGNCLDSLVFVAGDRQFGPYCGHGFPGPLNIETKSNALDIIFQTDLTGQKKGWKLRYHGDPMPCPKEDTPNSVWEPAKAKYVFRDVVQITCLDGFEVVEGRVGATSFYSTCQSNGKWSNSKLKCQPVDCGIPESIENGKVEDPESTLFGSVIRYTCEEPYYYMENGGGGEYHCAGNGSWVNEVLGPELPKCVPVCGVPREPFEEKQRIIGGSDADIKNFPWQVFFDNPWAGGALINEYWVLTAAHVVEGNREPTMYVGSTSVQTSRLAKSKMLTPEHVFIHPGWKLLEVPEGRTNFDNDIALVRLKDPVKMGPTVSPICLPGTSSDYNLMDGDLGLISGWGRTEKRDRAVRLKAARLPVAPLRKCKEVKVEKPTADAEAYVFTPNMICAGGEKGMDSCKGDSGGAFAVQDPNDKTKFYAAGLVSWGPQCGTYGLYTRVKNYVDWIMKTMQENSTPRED

Amino acid sequences for entries named in this document (tags omitted). A change or cut given only in a name is not applied to a line headed by its entry.
UniProt P00736: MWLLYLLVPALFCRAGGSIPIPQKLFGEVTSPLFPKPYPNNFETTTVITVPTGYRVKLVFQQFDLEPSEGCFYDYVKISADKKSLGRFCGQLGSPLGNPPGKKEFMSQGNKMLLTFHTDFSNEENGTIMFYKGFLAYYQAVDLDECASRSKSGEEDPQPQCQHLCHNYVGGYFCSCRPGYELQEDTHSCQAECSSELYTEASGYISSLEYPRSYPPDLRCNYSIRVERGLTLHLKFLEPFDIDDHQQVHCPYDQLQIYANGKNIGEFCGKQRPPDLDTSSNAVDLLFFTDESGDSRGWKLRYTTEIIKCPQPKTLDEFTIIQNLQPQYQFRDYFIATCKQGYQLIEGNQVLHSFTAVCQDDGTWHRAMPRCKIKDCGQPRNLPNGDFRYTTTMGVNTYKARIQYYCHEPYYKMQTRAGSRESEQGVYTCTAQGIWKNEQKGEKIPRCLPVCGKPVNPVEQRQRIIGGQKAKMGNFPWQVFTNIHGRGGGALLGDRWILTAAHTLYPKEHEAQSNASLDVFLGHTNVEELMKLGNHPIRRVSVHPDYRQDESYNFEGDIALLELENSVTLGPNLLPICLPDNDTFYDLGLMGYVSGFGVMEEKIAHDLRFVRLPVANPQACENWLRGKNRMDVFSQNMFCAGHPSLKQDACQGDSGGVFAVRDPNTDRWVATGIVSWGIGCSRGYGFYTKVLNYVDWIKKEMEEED
UniProt P02745: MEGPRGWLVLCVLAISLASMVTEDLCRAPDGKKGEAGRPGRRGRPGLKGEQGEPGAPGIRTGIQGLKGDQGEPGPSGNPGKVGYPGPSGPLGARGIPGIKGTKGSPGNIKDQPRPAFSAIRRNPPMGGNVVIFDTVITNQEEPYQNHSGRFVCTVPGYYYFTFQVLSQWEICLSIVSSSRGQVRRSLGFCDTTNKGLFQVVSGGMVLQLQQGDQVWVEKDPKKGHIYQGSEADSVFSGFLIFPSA
UniProt P02746: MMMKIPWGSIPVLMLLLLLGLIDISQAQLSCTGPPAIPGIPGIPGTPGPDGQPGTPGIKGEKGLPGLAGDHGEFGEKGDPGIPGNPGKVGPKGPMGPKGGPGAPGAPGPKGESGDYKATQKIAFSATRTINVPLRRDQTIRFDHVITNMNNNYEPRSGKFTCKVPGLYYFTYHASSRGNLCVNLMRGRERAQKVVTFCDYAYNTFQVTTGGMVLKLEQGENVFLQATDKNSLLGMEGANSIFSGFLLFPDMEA
UniProt P02747: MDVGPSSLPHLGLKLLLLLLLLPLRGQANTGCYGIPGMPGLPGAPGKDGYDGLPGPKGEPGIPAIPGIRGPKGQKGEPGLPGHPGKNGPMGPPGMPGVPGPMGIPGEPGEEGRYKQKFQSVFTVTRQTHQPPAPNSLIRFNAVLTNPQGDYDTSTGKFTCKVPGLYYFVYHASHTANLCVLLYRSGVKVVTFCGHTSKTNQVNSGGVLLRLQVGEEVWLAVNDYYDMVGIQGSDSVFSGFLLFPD

[2] = target: T2, hC1s fragment 1.b (amino acids 272-422 of human C1s) (human) (UniProt P09871); assay: western blot of non-reduced SDS-PAGE gels
T2 sequence: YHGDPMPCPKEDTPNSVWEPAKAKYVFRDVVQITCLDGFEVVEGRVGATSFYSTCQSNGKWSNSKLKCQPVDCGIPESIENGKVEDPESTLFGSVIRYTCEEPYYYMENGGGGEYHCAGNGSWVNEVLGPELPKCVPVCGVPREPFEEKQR

[3] = target: T3, purified human activated C1s protein, two-chain form (Homo sapiens) (UniProt P09871); assay: western blot of non-reduced activated human C1s
T3 sequence: T1 sequence

[4] = target: T3, purified human activated C1s protein, two-chain form (Homo sapiens); assay: ELISA, target proteins immobilized on micro-titer plates
[5] = target: T3, purified human activated C1s protein, two-chain form (Homo sapiens); assay: western blot of activated human C1s run on SDS-PAGE under non-reducing conditions
[6] = target: T4, purified human C1 complex (human) (UniProt P00736+P02745+P02746+P02747); assay: biotin-labeled TNT003 incubated with purified C1 complex, size exclusion on Superdex-200
[7] = target: T4, purified human C1 complex (human); assay: biotin-labeled TNT003 incubated with purified human C1 complex, Superdex-200 fractions analyzed by western blotting
[8] = target: T3, purified human activated C1s protein, two-chain form (Homo sapiens); assay: ELISA with target proteins immobilized on micro-titer plates; ELISA, native protein immobilized on micro-titer plates
[9] = target: T3, purified human activated C1s protein, two-chain form (Homo sapiens); assay: solution phase monoclonal antibody capture assay with biotin-labeled activated C1s; native biotin-labeled activated C1s in solution, hybridoma supernatant screen

Measured: binding

B1: Anti-C1s monoclonal antibody IPN003 (antibody, V domains shown)
VH: EVMLVESGGALVKPGGSLKLSCAASGFTFSNYAMSWVRQIPEKRLEWVATISSGGSHTYYLDSVKGRFTISRDNARDTLYLQMSSLRSEDTALYYCARLFTGYAMDYWGQGTSVTVSS
VL: QIVLTQSPAIMSASLGERVTMTCTASSSVSSSYLHWYQQKPGSSPKLWIYSTSNLASGVPARFSGSGSGTFYSLTISSMEAEDDATYYCHQYYRLPPITFGAGTKLELK
notes: Mouse monoclonal antibody from an NZBW hybridoma; Biotin-labeled in some assays; also called IPN-M34; M34
binds: all assays above

Reference: US20150104448A1 (TRUE NORTH THERAPEUTICS, published 2015)
